Experimental data: patent US20240270793A1 (UNIVERSITY OF SOUTHAMPTON, priority 2020, published 2024)

Tests used:
[1] = general procedure: Fmoc solid-phase peptide synthesis; Wang resin preloaded with the first amino acid (Novabiochem); DIC/HOBt; settings: for final HPLC purity: analytical HPLC
[2] = general procedure: Fmoc solid-phase peptide synthesis; Fmoc-Ile-Wang resin; DIC/HOBt; settings: whole synthesis, scale 0.1 mmol

Substance	step yield ([1]; late stage modification step) [% yield]	final HPLC purity ([1]; late stage modification step) [% purity]	isolated yield ([2]; overall) [% overall yield]	isolated mass [2] [mg]	final HPLC purity ([1]; whole synthesis, scale of the general procedure 0.05-0.2 mmol) [% purity]
cyclo-(methyl)cys agr leu ile ile phe	76	89	–	–	–
cyclo-cys agr leu ile (Aib) phe (Aib)F	–	–	25	18	99
